Data on 58 compounds can be found in PubChem BioAssay AID2685 (National Center for Advancing Translational Sciences (NCATS), 2010).

The other results are listed elsewhere or left out. Shown are side measurements of this screen, not its main read-out; they come without a call. Compounds called inactive in the main read-out are mostly missing here. The note in brackets gives the kind of curve behind each potency; many fits are weak.

A short description of the test: qHTS Assay for Lipid Storage Modulators in Drosophila S3 Cells.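 For cell number change: cells counted by Cell Tracker Red CMTPX staining in the red channel.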 The conditions noted are these: BODIPY lipid droplet fluorescence, 18-24 h; for cell number change: measured here: cell count max response, cells fed with added oleic acid. In a few lines:
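Laser-scanning cytometry quantifies lipid droplet accumulation (500–530 nm total intensity; droplet/cell object ratio) in oleic acid-fed (400 uM added) Drosophila S3 cells treated with a concentration series. 20 uM Triacsin C defined 100% inhibition.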
For orientation: In qHTS, concentration-response curves come from the screen itself.

The mark [1] stands for this setting: measured here: lipid fluorescence (Fed channel) AC50, cells fed with added oleic acid.
Where [2] appears, read: measured here: cell number channel AC50, cells fed with added oleic acid.

On to `CCNC(=S)N/N=C/c1ccc(F)cc1`, for which the cell number change worked out at 56.4%.

For orientation: AC50 means the concentration giving half of the maximal activity seen. High values mean activity only at high concentration, low ones activity at low concentration. In the case of `O=C(Nc1nc(-c2ccccn2)cs1)c1ccc([N+](=O)[O-])o1`, the cell number change was -17%. Moreover, the AC50 under setting [1] is 29.1 µM [falling, single point].

Take `CC1(C)Cc2nc(NC3CCCCC3)c(C#N)cc2CO1`: the cell number change is -28.5%. For the same compound, under setting [1], the AC50 is 14.6 µM [falling, partial curve].

For `CCS(=O)(=O)NCC(c1cccnc1)N1CCN(c2ccccc2)CC1` (stereo unspecified), under setting [1], the AC50 is 1.84 µM [rising, partial curve].

With `COc1ccc(CCN2CC(C(=O)Nc3cc(F)ccc3F)CC2=O)cc1OC` (stereo unspecified), the cell number change was -19.3%.

For `Cc1ccc(CN2C(=O)CSC(C)C2=O)cc1` (stereo unspecified), the cell number change was -17.6%. In addition, the concentration at half-maximal activity (AC50) under setting [2] is 0.103 µM [falling, full curve, poor fit].

In the case of `COc1cc(C)c(NC(=O)C2CCN(S(=O)(=O)c3cccs3)CC2)cc1OC`, the cell number change came to 7.89%. Also, the AC50 under setting [1] was 6.51 µM [rising, single point].

`Cc1nn(Cc2ccccc2)c(Cl)c1C(=O)OC(C)C#N` (stereo unspecified): the concentration at half-maximal activity (AC50) is, setting by setting: under setting [2], 0.103 µM [rising, single point]; under setting [1], 0.116 µM [rising, partial curve, poor fit].

Take `COc1cc(OC)c(C(=O)N/N=C/c2ccoc2)cc1OC`: the cell number change is -28.2%. Besides, the concentration at half-maximal activity (AC50) under setting [1] is 29.1 µM [rising, single point].

On to `NC(=O)CN1CCOCCN(CC(N)=O)CCOCC1`, for which the cell number change is -8.97%. Further, the concentration at half-maximal activity (AC50) under setting [1] was 4.11 µM [falling, full curve, poor fit].

Turning to `O=C(NS(=O)(=O)Nc1ccc(Cl)cc1)c1c[nH]c2ccccc12`, the cell number change is -4.28%.

Regarding `CC/C(C)=N/Nc1ccc(S(=O)(=O)N2CCCC2)cc1[N+](=O)[O-]`, the cell number change is 2.93%. The AC50 under setting [1] is 6.51 µM [falling, partial curve, poor fit].

Regarding `O=C(NNc1c(F)c(F)cc(F)c1F)c1ccc(Cl)nc1`, the cell number change was found to be 6.45%. In addition, the concentration at half-maximal activity (AC50) under setting [1] is 29.1 µM [rising, single point].

`C=CCN1C(=O)/C(=C/c2ccc(-c3ccc(F)cc3)o2)SC1=S`: the cell number change turned out to be 16.6%.

`COc1cc(C)c(Cl)cc1S(=O)(=O)n1cnc(C)c1`: the cell number change was determined as 6.79%. Besides, the concentration at half-maximal activity (AC50) under setting [1] was 0.13 µM [rising, full curve, poor fit].

Take `CC(=O)n1cc(-c2ccncc2)c2ccccc21`: the cell number change turned out to be 49.3%. Besides, under setting [2], the AC50 was 10.3 µM [rising, partial curve]. The AC50 under setting [1] was 3.66 µM [rising, full curve].

As to `COc1cc(/C=N/NC(=O)c2cccc(NC(=O)c3ccccc3C)c2)ccc1O`, the cell number change is -10.5%.

Turning to `O=C(O)CC1S/C(=N\N=C2CCCCCCC2)N(c2ccccc2)C1=O` (stereo unspecified), the cell number change was -41%. Also, the half-maximal activity concentration (AC50) under setting [2] was 7.31 µM [falling, single point].

Turning to `CC1CCN(S(=O)(=O)c2ccc(NC(=O)CN3CCOCC3)cc2)CC1`, the cell number change stood at 15.6%. The AC50 under setting [1] is 6.51 µM [falling, partial curve].

On to `O=C(CSCc1ccccc1)NC1CCSC1=O` (stereo unspecified), for which the cell number change came out at 15.5%. Further, the half-maximal activity concentration (AC50) under setting [1] is 18.4 µM [rising, partial curve].

Take `O=C(Nc1ccc(Cl)cn1)c1ccc2c(c1)OCCO2`: the cell number change was -37.9%. For the same compound, the AC50 under setting [2] is 29.1 µM [falling, single point]. Also, under setting [1], the concentration at half-maximal activity (AC50) was 25.9 µM [falling, partial curve, poor fit].

With `Cc1ccc(C)c2[nH]c(=O)c(C(c3nnnn3Cc3ccco3)N3CCc4ccccc4C3)cc12` (stereo unspecified), the cell number change was -28.9%. The AC50 under setting [1] is 13 µM [falling, partial curve].

Consider `CCOc1ccc(S(=O)(=O)N(C)c2ccc(OCC(=O)NCc3cccnc3)cc2)cc1`, for which, under setting [1], the AC50 was 29.1 µM [rising, single point].

Consider `O=C(C1=C[C@@H](c2ccc(C(F)(F)F)cc2)C[C@@H](OCCCCO)O1)N1CCN(Cc2ccccc2)CC1`, for which the cell number change was -13.5%. The half-maximal activity concentration (AC50) under setting [1] is 29.1 µM [falling, single point].

For the compound `CC(=O)c1sc(NC(=O)c2cc3c(C)nn(-c4ccccc4)c3s2)nc1C`, the cell number change came to 3.33%. Also, the AC50 under setting [1] was 29.1 µM [rising, single point].

Consider `CCOc1ccc(C(=O)Nc2ccccc2N2CCN(C(=O)c3ccccc3)CC2)cc1[N+](=O)[O-]`, for which the cell number change was -41.2%. Besides, the concentration at half-maximal activity (AC50) under setting [2] was 1.46 µM [falling, full curve]. Further, the AC50 under setting [1] is 0.517 µM [falling, full curve].

For the compound `O=C(CSc1nnc(C2CC2)n1-c1ccccc1)NCc1ccco1`, the cell number change is 12.7%. The concentration at half-maximal activity (AC50) under setting [2] was 0.103 µM [rising, full curve, poor fit].

`COCCNC(=O)C(c1ccc(Cl)cc1)N(C(=O)CCC(=O)Nc1ccccn1)C1CCCC1` (stereo unspecified): the cell number change came out at 9.76%. Further, under setting [1], the AC50 was 20.6 µM [rising, single point].

On to `CC(C(=O)NC(=O)NC1CCCCC1)N1CCN(c2ccc(O)cc2)CC1` (stereo unspecified), for which the cell number change came to 4.48%. Further, under setting [1], the AC50 is 29.1 µM [falling, single point].

`Cc1cc(C)nc(SCC(=O)N/N=C/c2cccn2-c2ccc(O)cc2)n1`: the cell number change is 39.4%. Moreover, the AC50 under setting [2] is 3.66 µM [rising, full curve]. In addition, the concentration at half-maximal activity (AC50) under setting [1] is 6.51 µM [rising, single point].

Take `Cc1ccccc1/C=N/Nc1nc2ccccc2c(=O)n1O`: the cell number change amounted to 45%. The AC50 under setting [2] is 1.84 µM [rising, partial curve]. For the same compound, the AC50 under setting [1] was 2.06 µM [rising, partial curve].

Take `COc1ccc(C)cc1S(=O)(=O)N(CC(=O)NCc1ccco1)c1ccc(C)cc1`: under setting [1], the AC50 is 0.116 µM [falling, full curve, poor fit].

Regarding `C/C(=C\C(=S)Nc1ccccc1)Nc1ccc2ccccc2c1`, the cell number change was -17.3%. The AC50 under setting [2] is 3.66 µM [rising, partial curve]. For the same compound, under setting [1], the concentration at half-maximal activity (AC50) is 3.66 µM [rising, partial curve].

`O=C(COc1ccc2ccccc2c1)N/N=C/c1ccccn1`: the cell number change is 11.6%. For the same compound, the half-maximal activity concentration (AC50) under setting [2] was 6.51 µM [rising, single point].

As for `CC(C)CNC(=O)c1cccc(Cn2cc(Cl)cn2)c1`, the cell number change was -5.86%. In addition, the AC50 under setting [2] was 0.13 µM [falling, full curve, poor fit].

As to `CCOC(=O)c1c(N)nn(C(C)=O)c1-c1ccccc1`, the AC50 under setting [1] was 1.16 µM [rising, partial curve].

For the compound `CC(OC(=O)CNC(=O)c1ccc(Cl)c(Cl)c1)C(=O)N1CCOCC1` (stereo unspecified), the cell number change is 8%.

Take `CCOC(=O)/C=C/C(=O)Nc1ccccc1-c1ccccc1NC(=O)/C=C/C(=O)OCC`: the cell number change was -0.114%.

Consider `Cc1ccc(N/C=C/C(=O)c2cccs2)cc1`, for which the cell number change was 26.4%. For the same compound, the AC50 under setting [1] was 23.1 µM [rising, single point].

As to `CN(CC(=O)Nc1ccccc1Br)C(=O)c1ccccc1-c1nc2ccccc2s1`, the cell number change is -44.2%. Further, the AC50 under setting [2] is 16.4 µM [falling, partial curve, poor fit]. The concentration at half-maximal activity (AC50) under setting [1] is 0.651 µM [falling, partial curve].

Regarding `Cc1ncc(CO)c2cc(C(=O)Nc3cccc(F)c3)c(=Nc3cccc(C(N)=O)c3)oc12`, the cell number change came out at 57.7%. In addition, the AC50 under setting [2] is 29.1 µM [rising, single point].

`Clc1ccc(-n2c(SCc3nc4ccccc4[nH]3)nnc2-c2ccncc2)cc1`: the cell number change worked out at 16%. Further, the half-maximal activity concentration (AC50) under setting [1] was 0.00461 µM [rising, full curve, poor fit].

`COc1cc(/C(C)=N/N2CCN(Cc3ccc(C)cc3)CC2)ccc1O`: the cell number change was -12.8%.

Consider `COc1cc(NC(=O)c2cc([N+](=O)[O-])ccc2NC(=O)CN2CCN(c3ccccn3)CC2)cc(OC)c1`, for which the cell number change came out at 22.2%. The concentration at half-maximal activity (AC50) under setting [1] is 29.1 µM [rising, partial curve, poor fit].

Turning to `CNC(=O)c1ccccc1Sc1ccccc1CO`, the cell number change amounted to 41%. Further, under setting [2], the AC50 is 29.1 µM [rising, single point]. Moreover, the concentration at half-maximal activity (AC50) under setting [1] is 29.1 µM [rising, single point].

On to `COc1ccc(C2N(c3cc(Cl)ccc3OC)C(=O)C3CCCN32)cc1OC` (stereo unspecified), for which the cell number change was 20.1%. For the same compound, the AC50 under setting [1] is 0.146 µM [falling, full curve].

Consider `NNC(=O)COc1ccc(C(F)(F)F)cc1`, for which the cell number change was -45.2%. In addition, under setting [2], the AC50 is 29.1 µM [falling, single point]. Further, the AC50 under setting [1] was 29.1 µM [falling, single point].

In the case of `O=C(C1CCCO1)N1N=C(c2ccc(Br)cc2)CC1c1ccco1` (stereo unspecified), the cell number change was determined as 7.83%. The concentration at half-maximal activity (AC50) under setting [2] is 0.651 µM [falling, single point]. For the same compound, the half-maximal activity concentration (AC50) under setting [1] is 2.91 µM [rising, full curve].

With `Cc1ccccc1C(=O)N1CCC(C(=O)Nc2ccc(S(=O)(=O)N3CCCCC3)cc2)CC1`, the cell number change is -37.4%. Further, the AC50 under setting [2] was 16.4 µM [falling, single point]. Moreover, under setting [1], the concentration at half-maximal activity (AC50) is 10.3 µM [falling, partial curve].

For `Cc1cc(S(=O)(=O)Nc2ccc(C(=O)NCc3ccncc3)cc2)ccc1F`, the cell number change amounted to 30.6%. Besides, the half-maximal activity concentration (AC50) under setting [2] is 20.6 µM [rising, single point]. Also, the AC50 under setting [1] was 29.1 µM [rising, single point].

Turning to `Cc1cccc(OCC(=O)Nc2cccc(-c3nnc(-c4ccccc4)o3)c2)c1C`, the cell number change came to 25.1%. For the same compound, under setting [1], the AC50 was 6.51 µM [rising, partial curve].

On to `Cc1ccc(OCC(=O)Nc2cccc(S(=O)(=O)N3CCCCCC3)c2)cc1C`, for which the cell number change turned out to be 19.8%. Besides, the concentration at half-maximal activity (AC50) under setting [1] was 1.46 µM [rising, full curve, poor fit].

Regarding `C/C(=N\NC(=O)c1nnn(-c2nonc2N)c1CSc1ccc(C)cc1)c1ccco1`, the cell number change worked out at 112%. Also, the AC50 under setting [2] is 6.51 µM [falling, partial curve]. The AC50 under setting [1] is 29.1 µM [falling, partial curve].

For `O=c1[nH]c2ccc(S(=O)(=O)NCc3ccccn3)cc2s1`, the cell number change is 67.6%. Moreover, the AC50 under setting [2] is 20.6 µM [rising, single point].

For the compound `O=C(c1ccc2ccccc2c1)N1CCN(c2ccc([N+](=O)[O-])c(N3CCOCC3)c2)CC1`, the cell number change was -8.81%. Also, the AC50 under setting [1] was 16.4 µM [rising, partial curve, poor fit].

In the case of `CCCN1/C(=C(/C#N)C2=NS(=O)(=O)c3ccccc32)N(C)c2ccccc21`, the cell number change is -1.21%. The AC50 under setting [1] was 18.4 µM [rising, single point].

As for `COc1cc(/C=C2/C(=O)NN(c3cccc(C)c3)C2=O)ccc1OC(=O)c1ccco1`, the cell number change was -15.5%. Under setting [1], the AC50 was 16.4 µM [falling, single point].

With `O=C(Nc1ccc(S(=O)(=O)NC2CCCC2)cc1)c1cnccn1`, the concentration at half-maximal activity (AC50) under setting [1] was 0.103 µM [rising, full curve, poor fit].
